± gives the standard deviation. This is a selection; strong and weak results do not stand in their true shares. Many of these values have a large error.
test system: MIWI (PIWIL1) piRISC loaded with L1MC piRNA (30 nt); experiment: pre-steady-state target cleavage rate (min^-1); MIWI and MILI are mouse PIWI proteins and EfPiwi is from a freshwater sponge; tags in brackets are library labels; higher = faster piRNA-guided slicing of the target; conditions: guide: L1MC piRNA 5'p-UAACUAAAUACUAUGCAAGCUGUAGGUCCU; auxiliary factor: 500 nM mouse GTSF1
Outline: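 A transcribed, DNA-blocked target RNA library (0.1 nM) and 1 nM active affinity-purified piRISC bearing one synthetic guide were incubated in HEPES–potassium acetate buffer at 33 °C for 0–8 or 0–960 min, either with or without 500 nM GTSF1 partner protein. Uncleaved targets were sequenced, normalised to depth and to weakly complementary targets, and pooled over three trials, with k3 capped at 0.0001 min^-1. The pre-steady-state cleavage rate was derived with a burst-and-steady-state fit.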

Row | Sequence | pre-steady-state target cleavage rate
1 | UCGACGAACAGCUUGCAUAGUAUUUAGUUA | 1.38 ± 0.049
2 | UCCACCUACACCAUGCAUAGUAUUUAGUUA | 0.719 ± 0.036
3 | AGGUGGUACAGCUUGCAUAGUAUUUAGUAA | 0.645 ± 0.065
4 | UGGACCUACAGCUUGCAUAGUAUUUAGUCA | 0.934 ± 0.05
5 | UCGAGCUACAGCUUGCUUAGUAUUUAGUUA | 1.19 ± 0.053
6 | AGGACCUACAGCUUGCAUGGUAUUUAGUUA | 1.35 ± 0.073
7 | UCCUGGUACAGCUUGCAUACAUUUUAGUUA | 0.00353 ± 0.0048
8 | AGGACCUACAGGAAGCAUAGUAUUUUCAAA | 0.132 ± 0.024
9 | UGGACCUACAGCUUCCAUAGUAUUUACUUA | 0.00345 ± 0.0045
10 | UCCUGGAUCAGCUUGGAUAGUAUUUAGUUA | 0.775 ± 0.064
11 | ACCUCCUACAGCUUGCAUAGUAUUUAGUUA | 1.35 ± 0.052
12 | UCGACCUACAGCUUGCAUAGUAUUCUAGUUA | 0.882 ± 0.094
13 | UGGACCUACAGCUUGCAUACAAUUUACAAA | 0.000439 ± 0.011
14 | UGCUCCUACAGCUUGCAUAGUAUUUAGAAA | 0.429 ± 0.033
15 | UGGACCUACAGCUUGGUAAGUAUUUAGAAA | 0.000336 ± 0.013
16 | UGGACCUACACCUUGGAUAGUAUUUAGUUA | 0.815 ± 0.069
17 | UCCACCUAGUCCUUGCAUAGUAUUUAGUAA | 0.142 ± 0.021
18 | CGGACCUACAGCUUGCAUAGUAUUUAGUUA | 0.743 ± 0.028
19 | AGGACCACAGCUUGCAUAGUAUUUAGUUA | 1.29 ± 0.066
20 | UCGACCUCACAGCUUGCAUAGUAUUUAGUUA | 1.38 ± 0.05
21 | UGGACCUACAGCAUGCAUAGUAUUUAGUAA | 0.977 ± 0.075
22 | AGGACCUGCAGCUUGCAUAGUAUUUAGUUA | 1.38 ± 0.088
23 | UCGUGCUACAGCUUGCAUAGUAUUUAGUAA | 0.926 ± 0.053
24 | AGGAGCUACAGCUUGGAUAGUAUUUAGUUA | 1.17 ± 0.081

Source: the supplement of paper PMC10338343
